# PubChem BioAssay AID1671190 (National Center for Advancing Translational Sciences (NCATS), 2021)
# Amino acid sequences for entries named in this document (tags omitted).
# UniProt P18054, whole entry, looked up: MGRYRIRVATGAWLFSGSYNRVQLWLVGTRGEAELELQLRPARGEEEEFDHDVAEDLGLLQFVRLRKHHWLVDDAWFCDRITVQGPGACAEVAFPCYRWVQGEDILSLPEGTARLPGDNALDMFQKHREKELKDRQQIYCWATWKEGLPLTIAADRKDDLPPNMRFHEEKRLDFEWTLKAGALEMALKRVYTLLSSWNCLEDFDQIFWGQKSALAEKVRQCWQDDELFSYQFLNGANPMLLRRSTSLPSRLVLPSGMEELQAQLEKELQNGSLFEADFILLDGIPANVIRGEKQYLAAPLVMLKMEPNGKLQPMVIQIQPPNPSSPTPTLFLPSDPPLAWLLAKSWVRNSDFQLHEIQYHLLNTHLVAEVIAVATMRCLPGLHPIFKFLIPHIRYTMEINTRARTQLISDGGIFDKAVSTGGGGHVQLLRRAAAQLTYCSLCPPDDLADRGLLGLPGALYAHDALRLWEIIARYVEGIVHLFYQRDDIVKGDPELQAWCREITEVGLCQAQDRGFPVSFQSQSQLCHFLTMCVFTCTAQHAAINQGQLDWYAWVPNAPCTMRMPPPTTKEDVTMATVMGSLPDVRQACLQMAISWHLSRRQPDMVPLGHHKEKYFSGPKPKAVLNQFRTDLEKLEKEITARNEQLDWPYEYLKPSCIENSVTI
# Hit rate of the full screen: of about 580,000 compounds, about 6,100 (1.1%) were called active. The inconclusive results got no clear call from the source; some entries with a clear call stand among them for comparison. The call rests on the fitted dose curve; in most records, active means well fitted inhibition curve with a large enough effect; inconclusive means small, poorly fitted or top-dose-only effect, or another doubt; inactive means no such curve, though single readings can be large or run the other way. Where the call is inconclusive, the potency comes from a doubtful curve fit.
# Molecular target: Polyunsaturated fatty acid lipoxygenase ALOX12 (Homo sapiens) (UniProt P18054)
# Experiment: Primary qHTS assay for inhibitors of human arachidonate 12S-lipoxygenase (ALOX12): Round 2
# Settings: purified 12hLO, xylenol orange hydroperoxide absorbance; activity change, negative = inhibition: at 108 µM (top of the series) unless noted
# Method in brief: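 Purified human 12hLO (150 nM final) in 25 mM Hepes, 0.01% Triton X-100, pH 7.0 was preincubated 15 min at room temperature with compound. Then 40 uM arachidonic acid was added, 30 min. Hydroperoxide was read by Fe-XO absorbance ratio 573/405 nm.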
# On the % scale 0 is the no-effect control and ±100 the full control effect; potency means the concentration at half of the fitted maximal effect.
Compound,"activity change, negative = inhibition",Potency
CCCCc1cc(=O)oc2cc(C)c3c(C)coc3c12,inactive: -29.1%,–
CCOC(=O)c1c(NC(=O)COc2ccc(OC)cc2)sc(C)c1Cc1ccc2c(c1)OCO2,–,"inconclusive: 79.4 µM [inhibitor, single point]"
COc1cccc(CNC(=O)C2CCN(c3nc4ccc(Cl)cc4[nH]3)CC2)c1,–,"inconclusive: 126 µM [inhibitor, partial curve, poor fit]"
CCN(CCCNC(=O)C1CCN(S(=O)(=O)c2cnc[nH]2)CC1)c1ccccc1,–,"inconclusive: 56.2 µM [inhibitor, partial curve, poor fit]"
CN1CCC(N(C)S(=O)(=O)c2ccc(NC(=O)COc3ccc([N+](=O)[O-])cc3)cc2)CC1,–,"inconclusive: 44.7 µM [inhibitor, partial curve, poor fit]"
CC1CCCCN1CC(=O)NCCc1c[nH]c2ccccc12 (stereo not drawn),inactive: 7.4%,–
CC(OC(=O)CCCSc1nc2ccccc2s1)C(=O)NC(N)=O (stereo not drawn),inactive: 28%,–
CC(C)(C)c1cc(C#N)cc(C(C)(C)C)c1O,–,"inconclusive: 44.7 µM [inhibitor, partial curve, poor fit]"
C=CCC1(Nc2c(C)cccc2CC)CCCCC1,–,"inconclusive: 158 µM [inhibitor, partial curve, poor fit]"
Cc1ccc(Cn2c(C(=O)Nc3cccc(Cl)c3)cc3sccc32)cc1,–,"inconclusive: 100 µM [inhibitor, partial curve, poor fit]"
Cc1cc(C(c2ccccc2F)N2CCCCC2)c(NC(=O)c2ccco2)s1 (stereo not drawn),–,"inconclusive: 39.8 µM [inhibitor, partial curve]"
CCOC(=O)c1ccc(S(=O)(=O)N2CCCC2c2cccn2C)cc1 (stereo not drawn),–,"inconclusive: 50.1 µM [inhibitor, partial curve, poor fit]"
CCOC(=O)C(=O)Nc1ccc(OC)cc1,–,"inconclusive: 141 µM [inhibitor, partial curve, poor fit]"
CCCCCOc1ccc(Cn2ccnc2)cc1[N+](=O)[O-],inactive: -9.49%,–
CC(C)Cn1c(=O)c(CCC(=O)Nc2ccc(N3CCOCC3)cc2)nc2cc(Cl)ccc21,–,"inconclusive: 15.8 µM [inhibitor, full curve]"
COc1ccc2c(c1)CC(NC(=O)Nc1cc(Cl)ccc1OC)CO2 (stereo not drawn),–,"inconclusive: 89.1 µM [inhibitor, partial curve, poor fit]"
CCc1ccc(C(=O)N2C[C@@H](CO)[C@H](N(C)C)C2)cc1,inactive: 9.05%,–
Cc1cccc(Nc2nc(N)nc(CN3CC[C@@](O)(C4CCC4)[C@H](C)C3)n2)c1,inactive: 47.3%,–
CCc1ccc(NC(=O)Cn2cnc3c(=O)n(C)c(=O)n(C)c32)cc1,–,"inconclusive: 79.4 µM [inhibitor, partial curve, poor fit]"
COC(=O)c1ccc(CSc2nc(C(F)(F)F)c3c(c2C#N)CCC3)o1,inactive: 42.1%,–
CCN(CC)CCCNC(=O)C1CCCN(c2nnc(N3CCCC3=O)s2)C1 (stereo not drawn),–,"inconclusive: 44.7 µM [inhibitor, partial curve, poor fit]"
COc1ccc(CC(=O)Nc2c3c(nn2-c2cccc(Cl)c2)CS(=O)(=O)C3)cc1,–,"inconclusive: 63.1 µM [inhibitor, partial curve, poor fit]"
O=C1C2CC=CCC2C(=O)N1c1ccc(N2CCN(c3ccccn3)CC2)c([N+](=O)[O-])c1 (stereo not drawn),inactive: -13.4%,–

Compound,"activity change, negative = inhibition",Potency
CC(=O)C1=C(O)C(=O)N(CCc2c[nH]c3ccccc23)C1c1ccccc1 (stereo not drawn),–,"inconclusive: 44.7 µM [inhibitor, partial curve, poor fit]"
COc1ccc(C)cc1S(=O)(=O)Nc1ccc(F)cc1,–,"inconclusive: 0.316 µM [inhibitor, full curve, poor fit]"
Cc1ccnc(SCC(=O)N2CCN(C(c3ccccc3)c3ccccc3)CC2)n1,inactive: -13.2%,–
CN(CCO)c1cccc2c1S(=O)(=O)N[C@H](Cc1ccccc1)CO2,–,"inconclusive: 25.1 µM [inhibitor, partial curve, poor fit]"
O=C1NC(c2cccc3ccccc23)Nc2ccccc21 (stereo not drawn),–,"inconclusive: 22.4 µM [inhibitor, partial curve, poor fit]"
c1ccc(N2CCN(Cc3nc4ccccc4[nH]3)CC2)nc1,–,"inconclusive: 6.31 µM [inhibitor, partial curve, poor fit]"
O=C(O)CN1C(=O)/C(=C\C(Br)=C\c2ccccc2)SC1=S,–,active: 35.5 µM
COc1ccc(S(=O)(=O)N2CCOC23CCN(S(=O)(=O)c2cc(C)ccc2C)CC3)cc1,inactive: -12.5%,–
CC1=C(C(=O)Nc2ccc([N+](=O)[O-])cc2)C(c2cccc(C(F)(F)F)c2)NC(=S)N1c1ccccc1 (stereo not drawn),–,"inconclusive: 31.6 µM [inhibitor, partial curve, poor fit]"
CN(CCOc1ccccc1)CC(O)COCc1ccccc1F (stereo not drawn),–,"inconclusive: 5.01 µM [inhibitor, full curve]"
CCOC(=O)NC(=O)COC(=O)Cc1cc(OC)c(OC)c(OC)c1,–,"inconclusive: 141 µM [inhibitor, partial curve, poor fit]"
O=c1c2c(-c3cccs3)csc2[nH]c(=S)n1-c1ccccc1,–,"inconclusive: 25.1 µM [inhibitor, single point]"
CCN1CCN(c2cc(C)c3cc(NC(=O)c4cccc(C(F)(F)F)c4)ccc3n2)CC1,inactive: -15.6%,–
CCS(=O)(=O)N1C[C@@H]2CN(Cc3ncc[nH]3)C[C@]2(C(=O)O)C1,inactive: 100%,–
CC(=O)N(c1cccc(Cl)c1)c1nc(COC(=O)C=C(C)C)cs1,–,"inconclusive: 100 µM [inhibitor, single point]"
O=C(CCc1ccccc1)NC1C2CC3CC(C2)CC1C3 (stereo not drawn),inactive: 17.1%,–
COc1ccc(NC(=O)Cn2nc([N+](=O)[O-])c(Cl)c2C)cc1OC,inactive: -22.9%,–
Cn1c(=O)oc2cc(S(=O)(=O)NCc3ccncc3)ccc21,–,"inconclusive: 50.1 µM [inhibitor, single point]"
Cc1cnc(CN(C)C(=O)C2CCC(=O)N(CCc3cccc(F)c3)C2)[nH]1 (stereo not drawn),–,"inconclusive: 3.98 µM [inhibitor, full curve]"
Cc1cc(=O)c2ccc(C(F)(F)F)cc2[nH]1,–,"inconclusive: 3.98 µM [inhibitor, partial curve, poor fit]"
COc1cc(CCCN2C(=O)C(=O)NC[C@@H]2Cc2ccc(O)cc2)cc(OC)c1OC,–,"inconclusive: 100 µM [inhibitor, single point]"
COc1cccc(C2C(C#N)=C(N)OC3=C2C(=O)CC(c2ccccc2)C3)c1 (stereo not drawn),–,"inconclusive: 0.398 µM [inhibitor, full curve, poor fit]"
COc1nc(N2CCCCCC2)nc(N2CCCCCC2)n1,inactive: 0%,–

Compound,"activity change, negative = inhibition",Potency
CNCc1cccn1C,–,active: 0.517 µM
Clc1ccc(-c2csc(NC3CCCC3)n2)c(Cl)c1,–,"inconclusive: 44.7 µM [inhibitor, single point]"
O=C(Nc1ccncc1)c1cc(-c2cccs2)nc2ccccc12,–,"inconclusive: 3.55 µM [inhibitor, full curve]"
CCOc1cc(C(=S)N2CCOCC2)ccc1OS(=O)(=O)c1ccccc1,inactive: -2.56%,–
Cc1cccc(C)c1NC(=O)C(C)n1nc(-c2ccccc2)ccc1=O (stereo not drawn),–,"inconclusive: 5.62 µM [inhibitor, full curve, poor fit]"
O=C(COc1ccc(Cl)cc1)Nc1ncc([N+](=O)[O-])s1,inactive: -9.64%,–
O=C1c2ccccc2CN1C1CCN(Cc2cccc3ccccc23)CC1,–,active: 50.1 µM
CCOc1cc(CNCCSc2nnnn2C)cc(Br)c1OCc1ccc(F)cc1,inactive: -9.96%,–
COc1ccc(C)cc1Nc1nc(-c2c(C)[nH]c3ccccc23)cs1,–,"inconclusive: 35.5 µM [inhibitor, partial curve]"
O=C1Nc2cc3c(cc2Sc2ccccc21)OCCO3,–,"inconclusive: 70.8 µM [inhibitor, partial curve, poor fit]"
Oc1ccc(-c2csc(Nc3ncccn3)n2)cc1O,–,active: 39.8 µM
CCOC1=C2[C@@H](CN(S(=O)(=O)c3ccc(C)cc3)[C@H]2c2ccc(Cl)cc2)[C@H]2C(=O)N(c3ccccc3)C(=O)[C@H]2C1,–,"inconclusive: 100 µM [inhibitor, single point]"
OCCN(Cc1ccccc1)Cc1cccc(Cl)c1Cl,–,"inconclusive: 0.562 µM [inhibitor, full curve, poor fit]"
CCN(CC)Cc1cnc2c(C(=O)N(CC)CC)cnn2c1,inactive: 18.9%,–
C=CCOc1ccccc1CN1CCCCCC1,–,"inconclusive: 0.708 µM [inhibitor, full curve, poor fit]"
O=C(COC(=O)c1cc(S(=O)(=O)N2CCOCC2)ccc1O)Nc1cc(S(=O)(=O)N2CCCC2)ccc1Cl,inactive: -12.4%,–
CCCOC(=O)c1nc2ccccc2nc1N1CCN(Cc2ccccc2)CC1,–,"inconclusive: 89.1 µM [inhibitor, partial curve, poor fit]"
Oc1ccc(-c2nc3ccccc3nc2-c2ccccc2)cc1,–,"inconclusive: 100 µM [inhibitor, single point]"
CCOC(=O)[C@H]1[C@H]2COc3ccc(Br)cc3[C@@H]2N2C(=O)CN(Cc3ccco3)C(=O)[C@@]12C,–,"inconclusive: 39.8 µM [inhibitor, partial curve, poor fit]"
Cc1ccc(-c2cn3c(n2)sc2cc(C(=O)NCCCN4CCCCC4)ccc23)cc1,inactive: -17.8%,–
COc1ccc(CC(=O)NC(=S)NNC(=O)COc2c(C)cccc2C)cc1,–,"inconclusive: 28.2 µM [inhibitor, partial curve, poor fit]"
Cc1oc(C(C)(C)C)cc1C(=O)NCc1ccc2c(c1)OCO2,–,"inconclusive: 126 µM [inhibitor, single point]"

# Part of the list above in another layout:
Compound	activity change, negative = inhibition	Potency
C=CCC1(Nc2c(C)cccc2CC)CCCCC1	–	inconclusive: 158 µM [inhibitor, partial curve, poor fit]
CCN(CC)CCCNC(=O)C1CCCN(c2nnc(N3CCCC3=O)s2)C1 (stereo not drawn)	–	inconclusive: 44.7 µM [inhibitor, partial curve, poor fit]
O=C1C2CC=CCC2C(=O)N1c1ccc(N2CCN(c3ccccn3)CC2)c([N+](=O)[O-])c1 (stereo not drawn)	inactive: -13.4%	–
COc1ccc(S(=O)(=O)N2CCOC23CCN(S(=O)(=O)c2cc(C)ccc2C)CC3)cc1	inactive: -12.5%	–
Cn1c(=O)oc2cc(S(=O)(=O)NCc3ccncc3)ccc21	–	inconclusive: 50.1 µM [inhibitor, single point]
Cc1cnc(CN(C)C(=O)C2CCC(=O)N(CCc3cccc(F)c3)C2)[nH]1 (stereo not drawn)	–	inconclusive: 3.98 µM [inhibitor, full curve]
O=C(Nc1ccncc1)c1cc(-c2cccs2)nc2ccccc12	–	inconclusive: 3.55 µM [inhibitor, full curve]
CCOc1cc(C(=S)N2CCOCC2)ccc1OS(=O)(=O)c1ccccc1	inactive: -2.56%	–
CCOc1cc(CNCCSc2nnnn2C)cc(Br)c1OCc1ccc(F)cc1	inactive: -9.96%	–
OCCN(Cc1ccccc1)Cc1cccc(Cl)c1Cl	–	inconclusive: 0.562 µM [inhibitor, full curve, poor fit]
O=C(COC(=O)c1cc(S(=O)(=O)N2CCOCC2)ccc1O)Nc1cc(S(=O)(=O)N2CCCC2)ccc1Cl	inactive: -12.4%	–
CCCOC(=O)c1nc2ccccc2nc1N1CCN(Cc2ccccc2)CC1	–	inconclusive: 89.1 µM [inhibitor, partial curve, poor fit]
Cc1oc(C(C)(C)C)cc1C(=O)NCc1ccc2c(c1)OCO2	–	inconclusive: 126 µM [inhibitor, single point]
